The record followed here is paper PMC5003816.

The chains behind the UniProt entries cited, without tags or fusion partners.
UniProt P11142: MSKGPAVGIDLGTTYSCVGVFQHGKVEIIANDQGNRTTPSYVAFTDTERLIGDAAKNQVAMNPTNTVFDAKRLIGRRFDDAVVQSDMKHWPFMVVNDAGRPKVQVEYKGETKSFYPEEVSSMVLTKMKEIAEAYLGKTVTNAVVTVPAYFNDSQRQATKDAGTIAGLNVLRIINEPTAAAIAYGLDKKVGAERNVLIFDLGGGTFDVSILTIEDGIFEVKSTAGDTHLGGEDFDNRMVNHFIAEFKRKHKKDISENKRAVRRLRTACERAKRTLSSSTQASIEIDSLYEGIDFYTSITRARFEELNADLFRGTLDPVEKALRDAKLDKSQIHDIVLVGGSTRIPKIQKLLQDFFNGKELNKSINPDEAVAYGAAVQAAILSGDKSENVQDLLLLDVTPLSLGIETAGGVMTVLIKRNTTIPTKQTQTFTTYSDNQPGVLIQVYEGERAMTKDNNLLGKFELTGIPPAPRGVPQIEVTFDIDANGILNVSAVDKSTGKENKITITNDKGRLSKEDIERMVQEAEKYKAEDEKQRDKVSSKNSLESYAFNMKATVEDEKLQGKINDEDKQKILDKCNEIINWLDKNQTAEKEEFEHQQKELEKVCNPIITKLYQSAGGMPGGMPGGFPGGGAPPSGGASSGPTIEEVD
UniProt Q9UHD9: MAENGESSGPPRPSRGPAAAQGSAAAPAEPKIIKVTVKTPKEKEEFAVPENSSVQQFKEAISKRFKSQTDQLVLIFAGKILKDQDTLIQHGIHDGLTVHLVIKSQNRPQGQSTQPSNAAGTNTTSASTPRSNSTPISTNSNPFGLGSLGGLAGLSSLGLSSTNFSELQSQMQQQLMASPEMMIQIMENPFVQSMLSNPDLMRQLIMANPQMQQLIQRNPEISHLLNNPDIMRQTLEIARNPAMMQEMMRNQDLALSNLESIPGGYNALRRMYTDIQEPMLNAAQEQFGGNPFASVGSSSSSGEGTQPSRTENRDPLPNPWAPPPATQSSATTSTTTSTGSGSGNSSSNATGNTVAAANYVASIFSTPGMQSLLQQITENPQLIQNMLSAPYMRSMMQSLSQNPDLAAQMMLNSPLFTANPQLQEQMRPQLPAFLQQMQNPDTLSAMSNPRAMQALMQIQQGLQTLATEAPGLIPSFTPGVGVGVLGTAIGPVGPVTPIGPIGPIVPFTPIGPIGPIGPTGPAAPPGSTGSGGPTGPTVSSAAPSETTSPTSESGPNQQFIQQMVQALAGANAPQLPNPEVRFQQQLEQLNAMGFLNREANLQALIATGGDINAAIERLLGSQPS

This experiment concerns the target HSPA8-SV5, full-length (UniProt P11142). In words: co-IP; IP of HSPA8-SV5 mutants expressed in HEK293 cells, endogenous UBQLN2 detected; heat shock as indicated.

These are yes or no findings as the source states them, for the method shown. In cells and extracts the contact can be indirect. Some results given as binding are weak or reduced against the parent protein; the word gives no strength.

“UBQLN2 (human, endogenous in HEK293) (from UniProt Q9UHD9 1-624)”: the binding entry is reported as “binds”.
